Literature values as cited in US5320825A, “Serotonin reuptake inhibitors for S.P.E.C.T. imaging” (Trustees of the University of Pennsylvania, priority 1991, dated 1994).

Key:
[1] = target: norepinephrine (NE) reuptake system; settings: rat synaptosomes; read-out: Inhibition of monoamine uptake, NE (Ki); cited from earlier work
[2] = target: serotonin reuptake system (5-HT); settings: read-out: Inhibition of monoamine uptake, 5-HT (Ki); cited from earlier work

Compound: CN1Cc2c(N)cccc2C(c2ccccc2)C1 (centres unmarked) [Nomifensine]
- Ki [1]: 5 nM
- Ki [2]: 5 µM
